These are yes or no findings as the source states them, for the method shown. Some entries that bind do so weakly or less than the wild type.
What follows are substances tested against ZZ-TEV-Arp11 (human) (human) (UniProt Q9NZ32) (assay: co-purification (IgG affinity by ZZ-Arp11, then gel filtration); subunits co-expressed in Sf9 cells; clarified lysate on IgG beads, TEV protease, Superose 6 increase; single peak).

Chains of the proteins cited; added tags and fusions are not shown. Lines headed by an entry give the natural chain unless they say otherwise; changes in a name come on top. A line that says so, or that is headed by a name, gives the form on record, which may keep a tag or linker.
UniProt Q9NZ32: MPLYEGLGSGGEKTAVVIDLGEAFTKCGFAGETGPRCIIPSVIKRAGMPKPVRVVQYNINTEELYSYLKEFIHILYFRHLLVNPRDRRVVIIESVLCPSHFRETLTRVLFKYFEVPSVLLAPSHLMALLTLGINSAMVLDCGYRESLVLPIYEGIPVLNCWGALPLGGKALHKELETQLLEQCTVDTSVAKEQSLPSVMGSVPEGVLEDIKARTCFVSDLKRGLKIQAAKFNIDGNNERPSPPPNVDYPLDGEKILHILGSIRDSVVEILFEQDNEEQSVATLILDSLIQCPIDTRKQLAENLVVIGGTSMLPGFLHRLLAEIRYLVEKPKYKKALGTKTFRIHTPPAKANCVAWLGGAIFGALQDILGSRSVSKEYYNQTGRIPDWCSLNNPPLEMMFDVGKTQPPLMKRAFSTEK
p62 (human, isoform A), site 2 mutant (Q9UJW0-1, form named): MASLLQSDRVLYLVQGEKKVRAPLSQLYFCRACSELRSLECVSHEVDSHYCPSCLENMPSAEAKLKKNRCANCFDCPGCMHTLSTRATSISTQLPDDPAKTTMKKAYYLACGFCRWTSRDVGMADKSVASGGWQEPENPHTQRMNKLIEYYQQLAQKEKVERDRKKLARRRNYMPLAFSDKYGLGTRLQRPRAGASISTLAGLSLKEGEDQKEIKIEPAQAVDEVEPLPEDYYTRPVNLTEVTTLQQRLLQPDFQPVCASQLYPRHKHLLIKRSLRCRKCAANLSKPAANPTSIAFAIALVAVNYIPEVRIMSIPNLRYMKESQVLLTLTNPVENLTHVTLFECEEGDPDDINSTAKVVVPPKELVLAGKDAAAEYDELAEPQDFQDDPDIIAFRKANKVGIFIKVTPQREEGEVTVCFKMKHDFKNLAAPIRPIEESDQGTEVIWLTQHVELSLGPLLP

binding	Substance
binds	p25 (human) (from UniProt Q9BTE1 1-182)
binds	p62 (human, isoform A) (from UniProt Q9UJW0-1 1-460)
binds	p25 (human), site 3 mutant (from UniProt Q9BTE1 1-182)
binds	p62 (human, isoform A), site 2 mutant (from UniProt Q9UJW0-1 1-460)
binds	p25 (human), site 4 mutant (from UniProt Q9BTE1 1-182)
binds	p27 (human) (from UniProt O00399 1-190)

What follows are substances tested against T1, 2xStrep-Psc-HOOK3 1–522 (UniProt Q86VS8) (assay: pull-down; 100 pmol Strep-tagged adaptor with 700 pmol pointed end complex, 25 mM HEPES pH 7.2, 100 mM KCl, 1 h at 4°C; Streptactin beads, washed at 150 mM KCl, eluted with desthiobiotin; Arp11 band quantified (SYPRO Ruby); both purified).
T1 sequence: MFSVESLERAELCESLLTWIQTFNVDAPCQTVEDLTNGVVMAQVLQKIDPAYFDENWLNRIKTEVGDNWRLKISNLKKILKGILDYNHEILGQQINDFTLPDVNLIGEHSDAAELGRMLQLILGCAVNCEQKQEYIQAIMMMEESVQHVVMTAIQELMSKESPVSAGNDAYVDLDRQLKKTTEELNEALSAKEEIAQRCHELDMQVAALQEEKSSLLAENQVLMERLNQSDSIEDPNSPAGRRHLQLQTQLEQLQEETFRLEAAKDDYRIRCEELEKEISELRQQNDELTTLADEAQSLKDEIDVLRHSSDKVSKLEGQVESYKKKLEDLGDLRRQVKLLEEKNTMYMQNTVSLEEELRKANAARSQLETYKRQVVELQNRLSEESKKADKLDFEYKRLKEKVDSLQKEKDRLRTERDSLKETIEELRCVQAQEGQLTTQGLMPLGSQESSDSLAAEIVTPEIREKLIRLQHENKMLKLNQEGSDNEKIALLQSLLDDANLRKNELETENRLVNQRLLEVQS

binding	Substance
binds	pointed end complex, site 3 mutant (from UniProt Q9NZ32 1-417; Q9UJW0-1 1-460; Q9BTE1 1-182; O00399 1-190)
